Laboratory results taken from article PMC5663739.
No constants are given. Whether binding was seen depends on the method and setting. Binding seen in cells or lysates may run through a third protein. A yes stands for co-enrichment or nearness to the bait. Other partners may have been found. A no says only that the protein was not detected with the bait. Tags and fused reporters may be left off the sequences shown.

Sequences of proteins named here, by UniProt entry; tags and fusion partners are left off.
UniProt Q8VDS3: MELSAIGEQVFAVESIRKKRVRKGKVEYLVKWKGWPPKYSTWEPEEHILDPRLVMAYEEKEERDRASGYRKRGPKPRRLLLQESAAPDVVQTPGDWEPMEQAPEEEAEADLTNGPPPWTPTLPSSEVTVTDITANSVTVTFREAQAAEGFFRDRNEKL
UniProt P59178: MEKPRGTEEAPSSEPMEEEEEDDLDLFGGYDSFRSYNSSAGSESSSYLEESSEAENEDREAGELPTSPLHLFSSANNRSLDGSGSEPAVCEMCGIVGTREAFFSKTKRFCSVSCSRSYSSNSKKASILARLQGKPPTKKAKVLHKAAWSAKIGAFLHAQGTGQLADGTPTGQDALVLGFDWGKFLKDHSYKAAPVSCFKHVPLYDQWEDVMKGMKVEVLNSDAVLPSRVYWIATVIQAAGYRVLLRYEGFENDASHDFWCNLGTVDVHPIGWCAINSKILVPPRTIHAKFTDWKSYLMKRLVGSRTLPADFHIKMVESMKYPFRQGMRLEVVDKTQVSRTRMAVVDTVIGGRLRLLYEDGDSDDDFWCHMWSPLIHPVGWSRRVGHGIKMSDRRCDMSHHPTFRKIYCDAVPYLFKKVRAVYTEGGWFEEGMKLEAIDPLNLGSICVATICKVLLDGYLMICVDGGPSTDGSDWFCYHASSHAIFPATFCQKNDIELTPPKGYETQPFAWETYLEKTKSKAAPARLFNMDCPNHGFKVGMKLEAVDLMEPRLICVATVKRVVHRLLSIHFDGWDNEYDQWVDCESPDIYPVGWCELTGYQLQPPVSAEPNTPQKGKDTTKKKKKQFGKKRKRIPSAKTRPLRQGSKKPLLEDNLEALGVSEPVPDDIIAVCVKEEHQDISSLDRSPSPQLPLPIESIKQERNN
UniProt A2AWL7: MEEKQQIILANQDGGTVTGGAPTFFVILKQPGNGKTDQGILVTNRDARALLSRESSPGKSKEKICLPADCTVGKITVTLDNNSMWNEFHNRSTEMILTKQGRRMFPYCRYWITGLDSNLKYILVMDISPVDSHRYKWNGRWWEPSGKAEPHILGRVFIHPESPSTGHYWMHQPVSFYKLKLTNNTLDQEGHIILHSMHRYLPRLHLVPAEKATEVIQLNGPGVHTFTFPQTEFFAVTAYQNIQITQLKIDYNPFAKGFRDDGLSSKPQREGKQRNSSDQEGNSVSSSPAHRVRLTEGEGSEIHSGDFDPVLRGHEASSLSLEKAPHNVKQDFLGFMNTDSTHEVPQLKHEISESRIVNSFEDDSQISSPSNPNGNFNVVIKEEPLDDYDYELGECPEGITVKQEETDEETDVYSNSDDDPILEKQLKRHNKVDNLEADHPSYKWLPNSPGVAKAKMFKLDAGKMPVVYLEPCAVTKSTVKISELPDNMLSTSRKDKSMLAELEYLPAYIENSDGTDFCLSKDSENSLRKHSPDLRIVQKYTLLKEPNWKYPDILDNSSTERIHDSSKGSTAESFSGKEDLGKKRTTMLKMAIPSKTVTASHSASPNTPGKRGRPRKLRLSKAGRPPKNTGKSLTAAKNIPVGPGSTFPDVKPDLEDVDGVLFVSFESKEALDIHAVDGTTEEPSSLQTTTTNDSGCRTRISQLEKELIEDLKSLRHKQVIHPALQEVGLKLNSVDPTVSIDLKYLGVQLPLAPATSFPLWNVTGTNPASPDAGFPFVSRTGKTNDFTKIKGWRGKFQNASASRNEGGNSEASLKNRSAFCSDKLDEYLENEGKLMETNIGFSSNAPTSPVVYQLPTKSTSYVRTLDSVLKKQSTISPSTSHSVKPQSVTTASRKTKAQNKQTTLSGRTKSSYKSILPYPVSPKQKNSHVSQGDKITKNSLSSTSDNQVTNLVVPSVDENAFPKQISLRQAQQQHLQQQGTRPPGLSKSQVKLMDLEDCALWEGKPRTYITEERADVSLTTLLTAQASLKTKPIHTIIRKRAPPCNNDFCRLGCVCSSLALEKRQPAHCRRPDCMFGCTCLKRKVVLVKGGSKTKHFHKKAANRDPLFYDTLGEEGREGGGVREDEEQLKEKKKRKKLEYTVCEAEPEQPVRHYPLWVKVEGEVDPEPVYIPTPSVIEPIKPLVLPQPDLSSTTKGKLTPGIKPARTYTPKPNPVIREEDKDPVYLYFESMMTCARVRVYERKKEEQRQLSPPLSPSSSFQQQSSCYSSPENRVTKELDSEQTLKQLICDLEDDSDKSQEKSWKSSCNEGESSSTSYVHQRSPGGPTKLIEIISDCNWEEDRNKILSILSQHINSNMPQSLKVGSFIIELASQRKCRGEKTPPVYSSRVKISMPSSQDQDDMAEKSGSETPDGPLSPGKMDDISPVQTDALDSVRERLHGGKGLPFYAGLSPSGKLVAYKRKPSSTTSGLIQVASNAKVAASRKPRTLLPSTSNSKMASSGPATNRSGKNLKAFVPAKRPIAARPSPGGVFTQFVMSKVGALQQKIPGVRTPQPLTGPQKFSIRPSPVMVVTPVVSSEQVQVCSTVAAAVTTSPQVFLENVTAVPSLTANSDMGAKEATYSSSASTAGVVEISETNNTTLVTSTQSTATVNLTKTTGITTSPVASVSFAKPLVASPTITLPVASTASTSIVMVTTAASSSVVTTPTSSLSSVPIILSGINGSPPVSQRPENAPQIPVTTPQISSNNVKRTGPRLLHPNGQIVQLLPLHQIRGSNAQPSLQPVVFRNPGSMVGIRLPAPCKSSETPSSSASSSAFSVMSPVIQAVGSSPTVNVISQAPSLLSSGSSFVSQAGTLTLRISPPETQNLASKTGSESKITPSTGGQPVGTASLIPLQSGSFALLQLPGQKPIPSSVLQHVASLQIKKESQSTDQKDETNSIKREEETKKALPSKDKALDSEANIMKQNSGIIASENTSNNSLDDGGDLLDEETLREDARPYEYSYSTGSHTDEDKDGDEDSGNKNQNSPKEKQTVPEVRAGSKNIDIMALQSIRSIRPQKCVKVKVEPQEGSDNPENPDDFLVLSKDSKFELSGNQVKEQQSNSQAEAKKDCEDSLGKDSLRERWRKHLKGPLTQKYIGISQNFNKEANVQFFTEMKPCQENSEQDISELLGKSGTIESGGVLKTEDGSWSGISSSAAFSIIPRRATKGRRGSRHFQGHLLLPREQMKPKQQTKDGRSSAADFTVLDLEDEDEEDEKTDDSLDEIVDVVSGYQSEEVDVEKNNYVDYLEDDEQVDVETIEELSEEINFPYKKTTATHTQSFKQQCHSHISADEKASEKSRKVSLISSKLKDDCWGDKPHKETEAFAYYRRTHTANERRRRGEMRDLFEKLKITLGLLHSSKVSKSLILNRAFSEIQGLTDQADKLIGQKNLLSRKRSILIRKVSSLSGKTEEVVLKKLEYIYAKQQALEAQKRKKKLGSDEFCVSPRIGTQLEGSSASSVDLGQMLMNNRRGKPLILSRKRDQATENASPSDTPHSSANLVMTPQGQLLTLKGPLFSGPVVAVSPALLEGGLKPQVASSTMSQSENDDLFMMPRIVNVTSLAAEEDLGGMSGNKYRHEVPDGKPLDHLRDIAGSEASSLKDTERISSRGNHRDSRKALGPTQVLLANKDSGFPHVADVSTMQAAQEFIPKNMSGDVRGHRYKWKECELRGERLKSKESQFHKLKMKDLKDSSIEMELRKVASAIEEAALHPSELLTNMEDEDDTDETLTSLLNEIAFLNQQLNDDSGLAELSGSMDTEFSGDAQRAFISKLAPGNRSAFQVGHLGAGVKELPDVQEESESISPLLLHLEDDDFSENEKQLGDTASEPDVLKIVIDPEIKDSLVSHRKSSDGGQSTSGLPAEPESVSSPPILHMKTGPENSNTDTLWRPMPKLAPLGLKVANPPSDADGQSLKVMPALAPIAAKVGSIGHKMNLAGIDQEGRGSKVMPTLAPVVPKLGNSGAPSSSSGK
UniProt Q9CQJ4: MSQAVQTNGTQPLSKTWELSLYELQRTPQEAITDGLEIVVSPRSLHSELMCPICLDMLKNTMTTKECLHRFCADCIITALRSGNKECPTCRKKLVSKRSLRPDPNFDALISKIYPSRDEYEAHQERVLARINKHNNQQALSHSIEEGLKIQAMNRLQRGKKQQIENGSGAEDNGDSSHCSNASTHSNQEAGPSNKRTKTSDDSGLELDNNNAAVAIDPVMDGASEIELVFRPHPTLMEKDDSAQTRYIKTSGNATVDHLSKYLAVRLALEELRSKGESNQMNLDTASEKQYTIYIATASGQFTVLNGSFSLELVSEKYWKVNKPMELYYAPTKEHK

T1: CBX6-3×FLAG (mouse) (UniProt Q9DBY5)
T1 sequence: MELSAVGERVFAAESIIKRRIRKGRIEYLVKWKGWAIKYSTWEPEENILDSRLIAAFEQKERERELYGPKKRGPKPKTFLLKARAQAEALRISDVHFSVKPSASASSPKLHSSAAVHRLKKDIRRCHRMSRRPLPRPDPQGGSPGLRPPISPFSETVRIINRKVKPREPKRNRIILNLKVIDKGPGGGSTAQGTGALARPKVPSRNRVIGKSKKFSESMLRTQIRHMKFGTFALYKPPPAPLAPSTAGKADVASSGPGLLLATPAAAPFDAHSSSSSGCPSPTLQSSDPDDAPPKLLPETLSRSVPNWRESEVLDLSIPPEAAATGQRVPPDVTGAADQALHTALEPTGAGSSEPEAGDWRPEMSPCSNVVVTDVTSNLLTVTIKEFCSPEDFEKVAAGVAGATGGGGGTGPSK

B1: PHC1 (protein, UniProt Q64028 1-1010)
chain: METESEQNSSSTNGSSSSGASSRPQIAQMSLYERQAVQALQALQRQPNAAQYFHQFMLQQQLSNAQLHSLAAVQQATIAASRQASSPNSSTAQQQTATTQASMNLATTSAAQLISRSQSVSSPSATTLTQSVLLGNTTSPPLNQSQAQMYLRPQLGNLLQVNRTLGRNVPLASQLILMPNGAVAAVQQEVPPAQSPGVHADADQVQNLAVRNQQASAQGPQMPGSTQKAIPPGASPVSGLSQTSSQALAVAQASSGASGQSLNLSQAGGGSGNSLPGSMGPGGGGQAPGGLGQLPSSGLTGGSCPRKGTGVVQPLPAAQTVTVSQGSQTEAESAAAKKAEADGSGQQSVGMNLTRTATPAPSQTLISSATYTQIQPHSLIQQQQQIHLQQKQVVIQQQIAIHHQQQFQHRQSQLLHTATHLQLAQQQQQQQQQQQQQQQQQQQQQQGTTLTAPQPPQVPPTQQVPPSQSQQQAQTLVVQPMLQSSPLTLPPEPTSKPPIPIQSKPPVAPIKPPQLGAAKMSATQQPPPHIPVQVVGTRQPGSAQAQALGLAQLAAAVPTPRGITGAVQPGQAHLASSPPSSQAAPGALQECPPALAAGMTLAPVQGTAHVVKGGPTASSPVVAQVPAAFYMQSVHLPGKAQTLAVKRKAESEEERDDLSALASVLPTKASPAAESPKVIEEKNSLGEKAEPVASLNANPPNSDLVALAPTPSAPPPTLALVSRQMGDSKPPQAIVKPQILTHIIEGFVIQEGAEPFPVGCSQFLKETKKPLQAGLPTGLNESQPSGPLGGDSPSVELEKKANLLKCEYCGKYAPAEQFRGSKRFCSMTCAKRYNVSCSHQFRLKRKKMKEFQEASYARVRRRGPRRSSSDIARAKIQGKRHRGQEDSSRGSDNSSYDEALSPTSPGPLSVRAGHGERDLGNTITTPSTPELQGINPVFLSSNPSQWSVEEVYEFIASLQGCQEIAEEFRSQEIDGQALLLLKEEHLMSAMNIKLGPALKICAKINVLKET
B2: PCGF6 (protein, UniProt Q99NA9 1-353)
chain: MDEAETDATENKRASEAKRASAMPPPPPPPPPISPPALIPAPAAGEEGPASLGQAGAAGCSRSRPPALEPERSLGRLRGRFEDYDEELEEEEEMEEEEEEEEEMSHFSLRLESGRADSEDEEERLINLVELTPYILCSICKGYLIDATTITECLHTFCKSCIVRHFYYSNRCPKCNIVVHQTQPLYNIRLDRQLQDIVYKLVINLEEREKKQMHDFYKERGLEVPKPAAPQPVPSSKGKTKKVLESVFRIPPELDMSLLLEFIGANEDTGHFKPLEKKFVRVSGEATIGHVEKFLRRKMGLDPACQVDIICGDHLLERYQTLREIRRAIGDTAMQDGLLVLHYGLVVSPLKIT
B3: RYBP (protein, UniProt Q8CCI5 1-228)
chain: MTMGDKKSPTRPKRQAKPAADEGFWDCSVCTFRNSAEAFKCSICDVRKGTSTRKPRINSQLVAQQVAQQYATPPPPKKEKKEKVEKPDKEKPEKDKDISPSVTKKNTNKKTKPKSDILKDPPSEANSIQSANATTKTSETNHTSRPRLKNVDRSTAQQLAVTVGNVTVIITDFKEKTRSSSTSSSTVTSSAGSEQQNQSSSGSESTDKGSSRSSTPKGDMSAVNDESF

Target: T1, CBX6-3×FLAG (mouse)
Assay: affinity purification with mass spectrometry; anti-FLAG beads on extracts of cryomilled CBX6-3×FLAG or empty control ESCs; 20 mM HEPES pH 7.4, 400 mM NaCl, 0.5% Triton X-100; 30 min at 4 °C; three biological replicates; label-free quantitative MS, fold-change ≥2, FDR 0.05

| Molecule | binding |
| --- | --- |
| CBX7 (from UniProt Q8VDS3 1-158) | no binding |
| L3MBTL2 (from UniProt P59178 1-703) | binds |
| MGA (from UniProt A2AWL7 1-3003) | binds |
| RING1B (from UniProt Q9CQJ4 1-336) | binds |
| B1 | binds |
| B2 | binds |
| B3 | no binding |
